The subject of this experiment is L1210 leukemia ip in BDF1 mice, survival T/C. Put plainly: NCI In Vivo Anticancer Drug Screen. Data for tumor model L1210 Leukemia (intraperitoneal) in B6D2F1 (BDF1) mice. Particulars: T/C endpoint: mean survival time, higher T/C = longer survival.
The mark [1] stands for this setting: dose: 100.0 mg/kg/injection, schedule: Q04DX003 (ip), vehicle: Klucel (hydroxypropylcellulose) (HPC).
[2] abbreviates: dose: 200.0 mg/kg/injection, schedule: Q04DX003 (ip), vehicle: Klucel (hydroxypropylcellulose) (HPC).
Setting [3] is: dose: 400.0 mg/kg/injection, schedule: Q04DX003 (ip), vehicle: Klucel (hydroxypropylcellulose) (HPC).
The mark [4] stands for this setting: dose: 400.0 mg/kg/injection, schedule: Q04DX003 (ip), vehicle: saline with Tween-80.
Where [5] appears, read: dose: 150.0 mg/kg/injection, schedule: Q01DX001 (ip), vehicle: saline.
Where [6] appears, read: dose: 300.0 mg/kg/injection, schedule: Q01DX001 (ip), vehicle: saline.
Where [7] appears, read: dose: 400.0 mg/kg/injection, schedule: Q04DX002 (ip), vehicle: saline with Tween-80.

The list does not hold the whole screen: it gathers tests that were run many times, whatever their T/C, doses with no T/C, and many T/C values between a quarter and a half above the control. Further doses and runs are listed elsewhere. T/C gives the treated animals as a percentage of the vehicle group. Some doses have a count of surviving animals in place of a T/C: the source files T/C as zero there, which appears to mark a toxic dose or a test without result, not a measured value. Some doses without a T/C left all or most animals alive at the check, yet need not have been tolerated: the source hardly ever lists a survival T/C far under the control, and the zero likely stands for such cases as well. Counts of survivors are from the toxicity check (mostly the fifth day) where no day follows; animals may have died later. Schedule codes are those of the source, read here as Q, the interval in days (D) or hours (H), X, the number of doses. Some entries hold several experiments; their values stand side by side, smallest first. Some schedule codes hold Z or #, which are not explained here. Where survival is the endpoint, this PubChem deposit counts one and a half times the control or more as active, and values a quarter to a half above the control carry no call in these data; other NCI protocols may use other cut-offs. Some T/C values carry the count of animals alive at the toxicity check (mostly the fifth day); where none is given, no animal had died by that day.

On to `C[CH2][Pb]([CH2]C)([CH2]C)[O][As](=O)(O)c1ccc(N)cc1`, for which the survivor count reads like this: (dose: 6.0 mg/kg/injection, schedule: Q01DX009 (ip), vehicle: Klucel (hydroxypropylcellulose) (HPC)) 4 of 6; (dose: 12.0 mg/kg/injection, schedule: Q01DX009 (ip), vehicle: Klucel (hydroxypropylcellulose) (HPC)) 1 of 6; (dose: 12.0 mg/kg/injection, schedule: Q04DX003 (ip), vehicle: Klucel (hydroxypropylcellulose) (HPC)) 0 of 6; (dose: 25.0 mg/kg/injection, schedule: Q04DX003 (ip), vehicle: Klucel (hydroxypropylcellulose) (HPC)) 0 of 6; (dose: 50.0 mg/kg/injection, schedule: Q04DX003 (ip), vehicle: Klucel (hydroxypropylcellulose) (HPC)) 1 of 6; under setting [1], 0 of 6. Besides, the survivor count is given as 0 of 6 under setting [2] and 0 of 6 under setting [3].
Regarding `Cc1csc(/N=C/c2ccc([N+](=O)[O-])o2)n1`, the survivor count under setting [4] is listed as 1 of 6.
Consider `Cc1ccc(Cl)cc1NC(=O)c1ccc([N+](=O)[O-])cc1`, for which, under “dose: 200.0 mg/kg/injection, schedule: Q01DX009 (ip), vehicle: saline with Tween-80”, the survivor count was 6 of 6.
Turning to `CN1C2CNC(=O)CC1C1CCC2C1` (stereo not given), the survivor count is, setting by setting: (dose: 150.0 mg/kg/injection, schedule: Q01DX001 (ip), vehicle: carboxymethylcellulose (CMC)) 2 of 6; (dose: 300.0 mg/kg/injection, schedule: Q01DX001 (ip), vehicle: carboxymethylcellulose (CMC)) 0 of 6.
`O=C(CCN1CCCC1)c1ccc(F)cc1`: the survivor count is, setting by setting: (dose: 100.0 mg/kg/injection, schedule: Q01DX009 (ip), vehicle: saline) 1 of 6 and 4 of 6; (dose: 200.0 mg/kg/injection, schedule: Q01DX009 (ip), vehicle: saline) 0 of 6; (dose: 400.0 mg/kg/injection, schedule: Q01DX009 (ip), vehicle: saline) 0 of 6.
Take `CCN(CC)CC(=O)N1Cc2ccccc2Cc2ccccc2C1`: the survivor count is, setting by setting: under setting [1], 0 of 3; under setting [2], 0 of 6; under setting [3], 0 of 6.
Regarding `CCOS(C)(=O)=O`, the survivor count (dose: 400.0 mg/kg/injection, schedule: Q04DX003 (ip), vehicle: alcohol) is recorded as 3 of 6.
In the case of `CCOP(=O)(OCC)c1cccc(Cl)c1`, the survivor count runs as follows: under setting [5], 0 of 6; under setting [6], 0 of 6.
`CS(=O)(=O)OCCN(CCOS(C)(=O)=O)c1ccc(C=Nc2ccc3ccccc3c2)cc1`: the T/C by setting is: (dose: 53.3 mg/kg/injection, schedule: Q04DX003 (ip), vehicle: Klucel (hydroxypropylcellulose) (HPC)) 142 % of control; (dose: 80.0 mg/kg/injection, schedule: Q04DX003 (ip), vehicle: Klucel (hydroxypropylcellulose) (HPC)) 138 % of control. The survivor count runs as follows: under setting [2], 5 of 6; under setting [3], 6 of 6.
With `O=C(NCC(O)CNC(=O)Nc1ccc(C2=NCCCN2)cc1)Nc1ccc(C2=NCCCN2)cc1`, the survivor count (dose: 30.0 mg/kg/injection, schedule: Q01DX Z (ip), vehicle: water) was 0 of 6; the survivor count (dose: 40.0 mg/kg/injection, schedule: Q01DX Z (ip), vehicle: water) is reported as 0 of 6; the survivor count (dose: 50.0 mg/kg/injection, schedule: Q01DX Z (ip), vehicle: water) is given as 0 of 6; the survivor count (dose: 80.0 mg/kg/injection, schedule: Q01DX Z (ip), vehicle: carboxymethylcellulose (CMC)) was 0 of 6. For the same compound, the T/C (dose: 40.0 mg/kg/injection, schedule: Q01DX Z (ip), vehicle: carboxymethylcellulose (CMC)) is 137 % of control [5 of 6 alive].
For the compound `Nc1ccc2cc(S(=O)(=O)O)cc(S(=O)(=O)O)c2c1`, the survivor count (dose: 400.0 mg/kg/injection, schedule: Q04DX002 (ip), vehicle: saline) was 0 of 3.
With `COC(OC)(/C(Cl)=C(\Cl)c1ccccc1)c1ccccc1`, the survivor count under setting [7] is given as 3 of 3.
Turning to `N#CC(C(=O)c1ccccc1)c1ccccc1` (stereo not given), the survivor count (dose: 250.0 mg/kg/injection, schedule: Q04DX002 (ip), vehicle: Klucel (hydroxypropylcellulose) (HPC)) was 3 of 3.
Take `[O-]c1nn(-c2ccccc2)c2cccc[n+]12`: the survivor count by setting is: under setting [5], 2 of 6; under setting [6], 0 of 6.
On to `c1ccc([P+](CC[P+](c2ccccc2)(c2ccccc2)c2ccccc2)(c2ccccc2)c2ccccc2)cc1`, for which the survivor count reads like this: (dose: 20.0 mg/kg/injection, schedule: Q04DX003 (ip), vehicle: saline) 6 of 6; (dose: 40.0 mg/kg/injection, schedule: Q04DX003 (ip), vehicle: saline) 0 of 6.
`COc1ccc(OC(C)=O)c(C=O)c1`: the survivor count (dose: 400.0 mg/kg/injection, schedule: Q01DX001 (ip), vehicle: carboxymethylcellulose (CMC)) is reported as 0 of 4.
Consider `CCNc1nnnn1-c1ccccc1`, for which the survivor count (dose: 400.0 mg/kg/injection, schedule: Q01DX001 (ip), vehicle: saline) is reported as 2 of 4.
As to `CCCCC(CSC#N)SC#N` (stereo not given), the survivor count was 0 of 3 (dose: 100.0 mg/kg/injection, schedule: Q04DX002 (ip), vehicle: saline with Tween-80); 0 of 3 (dose: 200.0 mg/kg/injection, schedule: Q04DX002 (ip), vehicle: saline with Tween-80); 0 of 3 under setting [7].
Take `NC(=S)Nc1ccccn1`: the survivor count is, setting by setting: (dose: 200.0 mg/kg/injection, schedule: Q04DX003 (ip), vehicle: saline with Tween-80) 3 of 6; under setting [4], 2 of 6.
As to `CC(=Nc1c2c(nc3ccccc13)CCCC2)N(C)C`, the survivor count under setting [1] is listed as 2 of 6, the survivor count under setting [2] is 0 of 6 and the survivor count under setting [3] is 0 of 6.
As to `CC(C)=NNC(=O)c1ccccn1`, the survivor count reads like this: (dose: 200.0 mg/kg/injection, schedule: Q01DX009 (ip), vehicle: carboxymethylcellulose (CMC)) 1 of 6 and 3 of 3; (dose: 200.0 mg/kg/injection, schedule: Q04DX003 (ip), vehicle: carboxymethylcellulose (CMC)) 0 of 6.
For the compound `CCOP(=O)(OCC)Oc1cc(C)c(SC#N)c(C)c1`, the survivor count is 0 of 6 (dose: 75.0 mg/kg/injection, schedule: Q01DX001 (ip), vehicle: saline); 0 of 6 under setting [5]; 0 of 6 under setting [6].
For the compound `C=C1Sc2ccccc2N1C`, the survivor count by setting is: (dose: 50.0 mg/kg/injection, schedule: Q01DX015 (ip), vehicle: saline) 2 of 6; (dose: 100.0 mg/kg/injection, schedule: Q01DX015 (ip), vehicle: saline) 0 of 6; (dose: 200.0 mg/kg/injection, schedule: Q01DX015 (ip), vehicle: saline) 3 of 6.

These data come from PubChem BioAssay AID248 (DTP/NCI, 2004).
